Numbered stars: 1 amine (or outer) side, 2 acyl side, 3 side chain; on linkers, the order of the positions; unused ones are H or OH. Bridge positions count the residues as written; N and C are the ends. Square brackets hold non-standard residues; d marks the D form. * marks the point of attachment. Suc = O=C(CCC(=O)[*:2])[*:1]; Lauroyl = CCCCCCCCCCCC(=O)*; Isobutyryl = CC(C)C(=O)*; Octanoyl = CCCCCCCC(=O)*; Orn = NCCC[C@H](N)C(=O)O; Dab = NCC[C@H](N)C(=O)O; Dap = NC[C@H](N)C(=O)O; Ahx = NCCCCCC(=O)O
Assay: general procedure: Fmoc solid-phase peptide synthesis; Rink Amide MBHA resin (0.58 mmol/g or 0.78 mmol/g); Wang resin for C-terminal acids; DIC/HOBt
Details: whole synthesis; for purity (crude or final not stated) / final HPLC purity: analytical HPLC; for purity (crude or final not stated): scale of the general procedure 0.090 mmol

Row | Substance | purity (crude or final not stated) | other results
1 | H-PKQCKWIQC-NH2 (disulfide 4-9; SMILES CC[C@H](C)[C@@H]1NC(=O)[C@H](Cc2c[nH]c3ccccc23)NC(=O)[C@H](CCCCN)NC(=O)[C@@H](NC(=O)[C@H](CCC(N)=O)NC(=O)[C@H](CCCCN)NC(=O)[C@@H]2CCCN2)CSSC[C@@H](C(N)=O)NC(=O)[C@H](CCC(N)=O)NC1=O) | 95.8% | 
2 | [Ahx]KWIQD-NH2 (lactam N-6; SMILES CC[C@H](C)[C@@H]1NC(=O)[C@H](Cc2c[nH]c3ccccc23)NC(=O)[C@H](CCCCN)NC(=O)CCCCCNC(=O)C[C@@H](C(N)=O)NC(=O)[C@H](CCC(N)=O)NC1=O) |  | final HPLC purity (scale 0.09 mmol): greater than 77%; crude mass (scale 0.09 mmol): ˜65 mg; isolated mass (scale 0.09 mmol): 12.3 mg; isolated yield (scale 0.09 mmol): 17% yield
3 | H-[dC][dQ][dI][dW][dK][dQ][dK][dP][dD][dL][dC]DK(Octanoyl)-OH (disulfide 1-11; SMILES CCCCCCCC(=O)NCCCC[C@H](NC(=O)[C@H](CC(=O)O)NC(=O)[C@H]1CSSC[C@@H](N)C(=O)N[C@H](CCC(N)=O)C(=O)N[C@H]([C@H](C)CC)C(=O)N[C@H](Cc2c[nH]c3ccccc23)C(=O)N[C@H](CCCCN)C(=O)N[C@H](CCC(N)=O)C(=O)N[C@H](CCCCN)C(=O)N2CCC[C@@H]2C(=O)N[C@H](CC(=O)O)C(=O)N[C@H](CC(C)C)C(=O)N1)C(=O)O) | 99% | 
4 | Ac-CKW[dI]QC-NH2 (disulfide 1-6; SMILES CC[C@@H](C)[C@H]1NC(=O)[C@H](Cc2c[nH]c3ccccc23)NC(=O)[C@H](CCCCN)NC(=O)[C@@H](NC(C)=O)CSSC[C@@H](C(N)=O)NC(=O)[C@H](CCC(N)=O)NC1=O) | 99% | 
5 | H-K(Lauroyl)DCLDPKQKWIQC-NH2 (disulfide 3-13; SMILES CCCCCCCCCCCC(=O)NCCCC[C@H](N)C(=O)N[C@@H](CC(=O)O)C(=O)N[C@H]1CSSC[C@@H](C(N)=O)NC(=O)[C@H](CCC(N)=O)NC(=O)[C@H]([C@@H](C)CC)NC(=O)[C@H](Cc2c[nH]c3ccccc23)NC(=O)[C@H](CCCCN)NC(=O)[C@H](CCC(N)=O)NC(=O)[C@H](CCCCN)NC(=O)[C@@H]2CCCN2C(=O)[C@H](CC(=O)O)NC(=O)[C@H](CC(C)C)NC1=O) | 97% | 
6 | Ac-CKQKWIQC[dP][dD][dL]-NH2 (disulfide 1-8; SMILES CC[C@H](C)[C@@H]1NC(=O)[C@H](Cc2c[nH]c3ccccc23)NC(=O)[C@H](CCCCN)NC(=O)[C@H](CCC(N)=O)NC(=O)[C@H](CCCCN)NC(=O)[C@@H](NC(C)=O)CSSC[C@@H](C(=O)N2CCC[C@@H]2C(=O)N[C@H](CC(=O)O)C(=O)N[C@H](CC(C)C)C(N)=O)NC(=O)[C@H](CCC(N)=O)NC1=O) | 82.1% | 
7 | Ac-CLD[dP]KQKWIQC-NH2 (disulfide 1-11; SMILES CC[C@H](C)[C@@H]1NC(=O)[C@H](Cc2c[nH]c3ccccc23)NC(=O)[C@H](CCCCN)NC(=O)[C@H](CCC(N)=O)NC(=O)[C@H](CCCCN)NC(=O)[C@H]2CCCN2C(=O)[C@H](CC(=O)O)NC(=O)[C@H](CC(C)C)NC(=O)[C@@H](NC(C)=O)CSSC[C@@H](C(N)=O)NC(=O)[C@H](CCC(N)=O)NC1=O) | 88.8% | 
8 | Ac-KKWIQE-NH2 (lactam 1-6; SMILES CC[C@H](C)[C@@H]1NC(=O)[C@H](Cc2c[nH]c3ccccc23)NC(=O)[C@H](CCCCN)NC(=O)[C@@H](NC(C)=O)CCCCNC(=O)CC[C@@H](C(N)=O)NC(=O)[C@H](CCC(N)=O)NC1=O) | 74.5% | 
9 | Ac-CLDPKQKWIQC[Dab]-NH2 (disulfide 1-11; SMILES CC[C@H](C)[C@@H]1NC(=O)[C@H](Cc2c[nH]c3ccccc23)NC(=O)[C@H](CCCCN)NC(=O)[C@H](CCC(N)=O)NC(=O)[C@H](CCCCN)NC(=O)[C@@H]2CCCN2C(=O)[C@H](CC(=O)O)NC(=O)[C@H](CC(C)C)NC(=O)[C@@H](NC(C)=O)CSSC[C@@H](C(=O)N[C@@H](CCN)C(N)=O)NC(=O)[C@H](CCC(N)=O)NC1=O) | 98% | 
10 | H-[dC][dQ][dI][dW][dK][dQ][dK][dP][dD][dL][dC][dD]K(Octanoyl)-OH (disulfide 1-11; SMILES CCCCCCCC(=O)NCCCC[C@H](NC(=O)[C@@H](CC(=O)O)NC(=O)[C@H]1CSSC[C@@H](N)C(=O)N[C@H](CCC(N)=O)C(=O)N[C@H]([C@H](C)CC)C(=O)N[C@H](Cc2c[nH]c3ccccc23)C(=O)N[C@H](CCCCN)C(=O)N[C@H](CCC(N)=O)C(=O)N[C@H](CCCCN)C(=O)N2CCC[C@@H]2C(=O)N[C@H](CC(=O)O)C(=O)N[C@H](CC(C)C)C(=O)N1)C(=O)O) | 99% | 
11 | GKWIQD-NH2 (lactam N-6; SMILES CC[C@H](C)[C@@H]1NC(=O)[C@H](Cc2c[nH]c3ccccc23)NC(=O)[C@H](CCCCN)NC(=O)CNC(=O)C[C@@H](C(N)=O)NC(=O)[C@H](CCC(N)=O)NC1=O) | 90.8% | 
12 | H-[dC][dQ][dI][dW][dK][dQ][dK][dP][dD][dL][dC]K(Octanoyl)-OH (disulfide 1-11; SMILES CCCCCCCC(=O)NCCCC[C@H](NC(=O)[C@H]1CSSC[C@@H](N)C(=O)N[C@H](CCC(N)=O)C(=O)N[C@H]([C@H](C)CC)C(=O)N[C@H](Cc2c[nH]c3ccccc23)C(=O)N[C@H](CCCCN)C(=O)N[C@H](CCC(N)=O)C(=O)N[C@H](CCCCN)C(=O)N2CCC[C@@H]2C(=O)N[C@H](CC(=O)O)C(=O)N[C@H](CC(C)C)C(=O)N1)C(=O)O) | 99% | 
13 | KWIQ[Orn]-NH2 (linker N-5 via Suc; SMILES CC[C@H](C)[C@@H]1NC(=O)[C@H](Cc2c[nH]c3ccccc23)NC(=O)[C@H](CCCCN)NC(=O)CCC(=O)NCCC[C@@H](C(N)=O)NC(=O)[C@H](CCC(N)=O)NC1=O) | 97% | 
14 | H-CQKWIQC-NH2 (disulfide 1-7; SMILES CC[C@H](C)[C@@H]1NC(=O)[C@H](Cc2c[nH]c3ccccc23)NC(=O)[C@H](CCCCN)NC(=O)[C@H](CCC(N)=O)NC(=O)[C@@H](N)CSSC[C@@H](C(N)=O)NC(=O)[C@H](CCC(N)=O)NC1=O) | 94.4% | 
15 | Octanoyl-[Dap][dC][dQ][dI][dW][dK][dQ][dK][dP][dD][dL][dC]-NH2 (disulfide 2-12; SMILES CCCCCCCC(=O)N[C@@H](CN)C(=O)N[C@@H]1CSSC[C@H](C(N)=O)NC(=O)[C@@H](CC(C)C)NC(=O)[C@@H](CC(=O)O)NC(=O)[C@H]2CCCN2C(=O)[C@@H](CCCCN)NC(=O)[C@@H](CCC(N)=O)NC(=O)[C@@H](CCCCN)NC(=O)[C@@H](Cc2c[nH]c3ccccc23)NC(=O)[C@@H]([C@H](C)CC)NC(=O)[C@@H](CCC(N)=O)NC1=O) | 99% | 
16 | Ac-EKWIQ[Orn]-NH2 (lactam 1-6; SMILES CC[C@H](C)[C@@H]1NC(=O)[C@H](Cc2c[nH]c3ccccc23)NC(=O)[C@H](CCCCN)NC(=O)[C@@H](NC(C)=O)CCC(=O)NCCC[C@@H](C(N)=O)NC(=O)[C@H](CCC(N)=O)NC1=O) | 99.2% | 
17 | Isobutyryl-[Dap]KWIQE-NH2 (lactam 1-6; SMILES CC[C@H](C)[C@@H]1NC(=O)[C@H](Cc2c[nH]c3ccccc23)NC(=O)[C@H](CCCCN)NC(=O)[C@@H](NC(=O)C(C)C)CNC(=O)CC[C@@H](C(N)=O)NC(=O)[C@H](CCC(N)=O)NC1=O) |  | final HPLC purity (scale 0.09 mmol): 84%; crude mass (scale 0.09 mmol): ˜65 mg; isolated mass (scale 0.09 mmol): 23 mg
